Reference: patent US20230406933A1
Results are given in words; binding and its absence hold for the method and conditions named. Some results given as binding are weak or reduced against the parent protein; the word gives no strength.

Protein sequences, listed by entry. Tags and fused reporters are not part of them.
UniProt Q9NZQ7: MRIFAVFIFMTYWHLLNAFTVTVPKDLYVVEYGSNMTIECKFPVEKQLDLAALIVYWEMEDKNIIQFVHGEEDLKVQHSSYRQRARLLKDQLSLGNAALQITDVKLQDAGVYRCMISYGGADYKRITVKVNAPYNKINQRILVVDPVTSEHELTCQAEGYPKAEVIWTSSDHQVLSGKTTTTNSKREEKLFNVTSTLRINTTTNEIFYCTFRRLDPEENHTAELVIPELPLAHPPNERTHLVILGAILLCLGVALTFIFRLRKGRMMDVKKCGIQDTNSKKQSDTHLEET

Columns and labels:
[1] = target: PDL1 coated in the commercial PD1:PDL1 inhibition assay (Acro Biosystems Cat# EP-101) (Homo sapiens (Human)) (UniProt Q9NZQ7); assay: Acro Biosystems PD1:PDL1 inhibition assay (EP-101): PDL1 coated, biotinylated PD1 detected with streptavidin-HRP; blocked ligand: biotinylated PD1
[2] = target: recombinant human PD-L1 (human) (UniProt Q9NZQ7); assay: binding ELISA on coated PD-L1, anti-Myc HRP; sdAb stored one week at -20 C
[3] = target: recombinant human PD-L1 (human) (UniProt Q9NZQ7); assay: binding ELISA, PD-L1 coated, anti-Myc HRP detection
[4] = target: recombinant human PD-L1 (human) (UniProt Q9NZQ7); assay: binding ELISA on coated PD-L1 after one week at -20, 4 and 37 C, anti-Myc HRP
[5] = target: recombinant human PD-L1 (human) (UniProt Q9NZQ7); assay: binding ELISA on coated PD-L1, anti-Myc HRP; sdAb stored one week at 4 C
[6] = target: recombinant human PD-L1 (human) (UniProt Q9NZQ7); assay: binding ELISA on coated PD-L1, anti-Myc HRP (method of Example 6)
[7] = target: recombinant human PD-L1 (human) (UniProt Q9NZQ7); assay: binding ELISA on coated PD-L1, anti-Myc HRP; sdAb stored one week at 37 C
[8] = target: recombinant human PD-L1 (human) (UniProt Q9NZQ7); assay: binding ELISA on coated PD-L1, anti-Myc HRP

Measured: binding

B1: humanised 32.1A1 clone (VHH)
VHH: QVQLVESGGGLVQPGGSLRLSCAASGRTFREYGMGWFRQAPGKGLEWVATISSSGSYSYYADSVKGRFTISRDNSKNTLYLQMNSLRAEDTAVYYCAASSLLRGSSSRAESYDSWGQGTLVTVSS
not listed: [8]
binds: all other assays above

B2: mutant sdAb clone GS651 (alanine substitution in CDR3 of humanised 32.1A1) (VHH)
VHH: QVQLVESGGGLVQPGGSLRLSCAASGRTFREYGMGWFRQAPGKGLEWVATISSSGSYSYYADSVKGRFTISRDNSKNTLYLQMNSLRAEDTAVYYCAASSLLRGASSRAESYDSWGQGTLVTVSS
binds: [6] | [8]

B3: mutant sdAb clone GS659 (alanine substitution in CDR3 of humanised 32.1A1) (VHH)
VHH: QVQLVESGGGLVQPGGSLRLSCAASGRTFREYGMGWFRQAPGKGLEWVATISSSGSYSYYADSVKGRFTISRDNSKNTLYLQMNSLRAEDTAVYYCAASSLLRGSSSRAESYDAWGQGTLVTVSS
binds: [6] | [8]

B4: mutant sdAb clone GS656 (alanine substitution in CDR3 of humanised 32.1A1) (VHH)
VHH: QVQLVESGGGLVQPGGSLRLSCAASGRTFREYGMGWFRQAPGKGLEWVATISSSGSYSYYADSVKGRFTISRDNSKNTLYLQMNSLRAEDTAVYYCAASSLLRGSSSRAEAYDSWGQGTLVTVSS
binds: [6] | [8]

B5: mutant sdAb clone GS645 (alanine substitution in CDR3 of humanised 32.1A1) (VHH)
VHH: QVQLVESGGGLVQPGGSLRLSCAASGRTFREYGMGWFRQAPGKGLEWVATISSSGSYSYYADSVKGRFTISRDNSKNTLYLQMNSLRAEDTAVYYCAAASLLRGSSSRAESYDSWGQGTLVTVSS
binds: [6] | [8]
